The target of this series is T1, T/EBP/NKX2.1 (TTF1) (UniProt P23441).
T1 sequence (looked up, limits assumed): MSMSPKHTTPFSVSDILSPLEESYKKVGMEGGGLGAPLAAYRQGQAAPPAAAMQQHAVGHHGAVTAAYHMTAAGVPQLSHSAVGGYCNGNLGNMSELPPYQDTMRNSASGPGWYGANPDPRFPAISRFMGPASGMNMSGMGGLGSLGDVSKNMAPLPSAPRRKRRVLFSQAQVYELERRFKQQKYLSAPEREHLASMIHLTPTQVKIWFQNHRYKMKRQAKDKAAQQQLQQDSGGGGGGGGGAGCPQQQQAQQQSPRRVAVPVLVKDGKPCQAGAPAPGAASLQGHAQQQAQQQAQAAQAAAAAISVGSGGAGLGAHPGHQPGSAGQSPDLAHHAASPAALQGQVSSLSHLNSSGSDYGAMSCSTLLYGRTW
Description: footprint. The settings on record: four protected regions; 2 ug protein; purified recombinant protein; protein details: bacterially expressed from pET-30a(+)-T/EBP/NKX2.1.

The record followed here is patent US20040234982A1 (published 2004).

Construct, isoform or probe ends are uncertain for at least one entry. Tags and fusion partners may be left off the protein sequences shown.

For “TATAGGAAAGCATTCCTCTCAAACCCAACAGAAAGCCTTCACATCTGCTTTAGTGTTCTTCCAGGGGGAAATCCTTTGCCGTCTGTCATCATTTCTATGCTAGGGCTTGGGAAAGAACTACTTGAGACTACTTCTGTGAACAGCTTTGTTTCTCACGAGAATGTGATGAAAAGTGGAAAACCCTTCAGAATGTTTAGTTAGGAAGATTGCCCTGCATGCTCTTCTTTGCTGGGGTAAGTCAACAGGCAGTGGTTGAAATTCAGGTCTTCAGTGCATATATTAGTACCTCTGAGGAAAAGCAGCCATCAGGTGACAGCGAGCAGAACTATTGACACCGTGATTTTGTTGGG (double strand) [mouse UGRP1 promoter 307-bp fragment]”, the binding result is “binds”.
